In article PMC6134028, “Mutant FUS causes DNA ligation defects to inhibit oxidative damage repair in Amyotrophic Lateral Sclerosis” (Nature Communications, 2018):
These are yes or no findings as the source states them, for the method shown. In cells and extracts the contact can be indirect. Here binding means that the protein was enriched with, or labelled near, the bait; the list need not be complete.

Protein sequences, listed by entry. Tags and fused reporters are not part of them.
UniProt P35637: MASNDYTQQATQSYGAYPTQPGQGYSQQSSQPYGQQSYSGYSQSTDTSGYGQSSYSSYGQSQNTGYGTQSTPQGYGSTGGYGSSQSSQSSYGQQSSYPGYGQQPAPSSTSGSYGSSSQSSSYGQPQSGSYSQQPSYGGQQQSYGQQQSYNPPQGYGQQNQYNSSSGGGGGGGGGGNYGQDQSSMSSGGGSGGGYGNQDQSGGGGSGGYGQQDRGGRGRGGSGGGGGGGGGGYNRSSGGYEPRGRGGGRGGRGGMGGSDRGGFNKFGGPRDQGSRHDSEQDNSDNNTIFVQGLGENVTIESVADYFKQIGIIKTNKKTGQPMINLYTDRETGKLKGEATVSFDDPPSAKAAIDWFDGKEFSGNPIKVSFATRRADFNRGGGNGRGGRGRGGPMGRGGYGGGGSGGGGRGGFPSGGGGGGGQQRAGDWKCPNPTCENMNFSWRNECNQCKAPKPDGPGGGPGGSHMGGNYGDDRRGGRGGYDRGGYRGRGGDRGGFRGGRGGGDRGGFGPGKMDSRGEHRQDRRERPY
UniProt P09874: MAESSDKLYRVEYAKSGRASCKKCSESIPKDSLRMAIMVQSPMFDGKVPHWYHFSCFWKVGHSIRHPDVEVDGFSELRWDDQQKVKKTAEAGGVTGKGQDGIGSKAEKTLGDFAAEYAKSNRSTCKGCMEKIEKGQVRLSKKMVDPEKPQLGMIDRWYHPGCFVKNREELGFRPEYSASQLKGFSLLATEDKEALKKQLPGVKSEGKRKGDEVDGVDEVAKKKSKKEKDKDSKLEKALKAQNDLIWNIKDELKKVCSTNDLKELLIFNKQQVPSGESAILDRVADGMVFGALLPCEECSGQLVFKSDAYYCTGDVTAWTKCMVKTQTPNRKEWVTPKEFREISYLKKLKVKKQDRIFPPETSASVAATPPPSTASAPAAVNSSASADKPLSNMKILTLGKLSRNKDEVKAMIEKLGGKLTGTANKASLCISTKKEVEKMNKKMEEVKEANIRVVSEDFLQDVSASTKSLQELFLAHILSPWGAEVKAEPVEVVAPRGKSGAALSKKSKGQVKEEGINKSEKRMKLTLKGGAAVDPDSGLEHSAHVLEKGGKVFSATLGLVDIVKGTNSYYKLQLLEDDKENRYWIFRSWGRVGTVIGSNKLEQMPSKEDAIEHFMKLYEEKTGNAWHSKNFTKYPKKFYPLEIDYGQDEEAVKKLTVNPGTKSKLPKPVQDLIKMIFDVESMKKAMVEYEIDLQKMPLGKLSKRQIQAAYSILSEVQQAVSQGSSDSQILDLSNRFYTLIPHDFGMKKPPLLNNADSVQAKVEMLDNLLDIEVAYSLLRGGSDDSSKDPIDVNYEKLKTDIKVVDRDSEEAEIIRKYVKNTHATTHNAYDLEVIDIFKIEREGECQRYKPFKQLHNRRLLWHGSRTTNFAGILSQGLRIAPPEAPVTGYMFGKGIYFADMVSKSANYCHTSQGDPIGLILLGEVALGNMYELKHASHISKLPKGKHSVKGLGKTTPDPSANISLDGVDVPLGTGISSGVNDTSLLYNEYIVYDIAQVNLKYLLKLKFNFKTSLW
UniProt P18887: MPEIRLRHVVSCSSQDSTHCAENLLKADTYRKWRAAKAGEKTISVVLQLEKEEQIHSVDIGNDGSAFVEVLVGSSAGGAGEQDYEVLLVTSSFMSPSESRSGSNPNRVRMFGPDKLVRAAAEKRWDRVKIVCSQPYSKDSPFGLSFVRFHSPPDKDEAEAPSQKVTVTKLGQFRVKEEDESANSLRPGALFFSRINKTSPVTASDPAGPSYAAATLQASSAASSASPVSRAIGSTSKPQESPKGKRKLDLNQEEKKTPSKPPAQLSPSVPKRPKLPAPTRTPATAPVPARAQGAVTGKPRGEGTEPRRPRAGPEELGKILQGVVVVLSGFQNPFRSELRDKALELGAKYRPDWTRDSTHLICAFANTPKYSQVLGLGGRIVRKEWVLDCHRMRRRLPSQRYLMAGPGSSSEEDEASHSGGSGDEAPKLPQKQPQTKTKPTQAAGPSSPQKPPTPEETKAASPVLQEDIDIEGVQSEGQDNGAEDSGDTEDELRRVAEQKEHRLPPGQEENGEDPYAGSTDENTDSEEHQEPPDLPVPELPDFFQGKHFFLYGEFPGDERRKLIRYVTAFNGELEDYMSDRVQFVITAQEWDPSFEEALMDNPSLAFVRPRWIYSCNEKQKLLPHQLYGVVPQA

Target: Fused in Sarcoma (FUS), endogenous (human (endogenous in SH-SY5Y and iPSC-derived motor neurons)) (UniProt P35637)
Assay: affinity purification with mass spectrometry; co-IP with a FUS antibody from GO-treated SH-SY5Y cells, mass spectrometry of the precipitate

Row | binding | Substance
1 | binds | poly(ADP-ribose) polymerase 1 (PARP1), endogenous (from UniProt P09874 1-1014)
2 | binds | XRCC1, endogenous (from UniProt P18887 1-633)
